The list shows a part of the results. The main result of the screen is listed elsewhere. These columns were measured beside it and carry no call. The list favours compounds with an active or inconclusive main result.
These molecules were tested against Sphingosine 1-phosphate receptor 1 (Homo sapiens) (UniProt P21453) (assay: S1P1 agonists and agonism potentiators, primary screen, cell-based, primary and confirmation screens, CRE-bla reporter (AID 449;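 note: forskolin at 4 µM as EC80 and the EC20 agonist is SEW2871; 100% = SEW2871 at its EC100 plus forskolin at EC80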)). Settings: S1P1 CRE-bla cells, forskolin, beta-lactamase FRET, potentiator mode; measured here: confirmation screen, triplicate average; at 9.5 µM; stronger effect = higher value; 100% = saturating reference agonist, 0% = basal; S1P1 agonist co-added at EC20, 2 nM.

Amino acid sequences for entries named in this document (tags omitted).
UniProt P21453, whole entry, looked up: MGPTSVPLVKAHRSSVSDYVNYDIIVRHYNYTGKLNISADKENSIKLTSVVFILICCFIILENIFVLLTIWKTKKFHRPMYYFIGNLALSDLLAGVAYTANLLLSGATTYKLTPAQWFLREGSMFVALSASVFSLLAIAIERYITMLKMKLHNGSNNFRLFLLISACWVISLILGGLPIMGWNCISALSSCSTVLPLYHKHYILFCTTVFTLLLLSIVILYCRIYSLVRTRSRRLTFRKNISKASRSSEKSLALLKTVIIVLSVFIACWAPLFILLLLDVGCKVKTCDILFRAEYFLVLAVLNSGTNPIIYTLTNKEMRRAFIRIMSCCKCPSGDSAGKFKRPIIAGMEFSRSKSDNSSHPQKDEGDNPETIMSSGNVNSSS

Compound | activation [%]
CCOC(=O)c1sc2nc(NC(=O)C3CCCCC3)sc2c1C | 72.3
Cc1ccc2c(c1)[nH]c1c(N3CCN(Cc4ccccc4)CC3)ncnc12 | 108
COc1ccc(-c2nc(-c3cccc(C(F)(F)F)c3)no2)cc1OC | 89.2
O=C(Nc1ccc(OC(F)F)c(Cl)c1)Nc1ccc2c(c1)OCO2 | 83.3
COc1ccc(CCNc2ncnc3c2oc2ccccc23)cc1OC | 119
COC(=O)c1cc(CSc2nnc(-c3ccccc3)c(-c3ccccc3)n2)oc1C | 97
NC(=O)c1ccc(OCC(F)(F)C(F)(F)C(F)(F)C(F)(F)C(F)(F)C(F)F)cc1 | 72.1
COc1ccc(-c2nc(-c3ccc(NC(=O)c4ccncc4)cc3)no2)cc1OC | 113
CCCc1cc(C(=O)Nc2sc(C)c(CC)c2C#N)no1 | 65.4
COc1ccc(-c2nc3cc(NC(=O)Cc4ccc(OC)c(OC)c4)ccc3o2)cc1 | 89.6
COc1ccc(-c2cc(C(=O)NC3CCCC3)no2)cc1OC | 70.3
CC(Oc1ccccc1Br)C(=O)N1CCc2ccccc21 (stereo not given) | 63.4
O=C(CSc1ncnc2c1oc1ccccc12)N1CCCc2ccccc21 | 100
CCCn1c(NC(=O)c2cccc(S(=O)(=O)N3CCCC3)c2)nc2ccccc21 | 96.7
CCCC(=O)N1CCN(c2ccc(NC(=O)c3cc4ccccc4o3)cc2Cl)CC1 | 75.7
COC(=O)c1ccc2c(=O)n(C3CCCCC3)c(SCC#N)nc2c1 | 96.8
O=S(=O)(NCc1ccncc1)c1ccc(Br)s1 | 106
CC1=CC(C)(C)Nc2ccc(OC(=O)c3cccnc3)cc21 | 62.2
O=C(Nc1ccc(N2CCOCC2)c(Cl)c1)c1cccc(F)c1 | 92.6
Cn1nc(C(C)(C)C)cc1C(=O)NCc1ccc(N2CCCC2=O)cc1 | 90.1

Compound | activation [%]
COCCn1c(C)cc(C(=O)CSc2nc3ccccc3o2)c1C | 57.3
CC(=O)Nc1ccccc1OCC(=O)c1cc(C)n(Cc2cccs2)c1C | 115
Nc1ccc(N2CCOCC2)c(Cl)c1 | 92.1
CN(C)c1oc(-c2ccc(OCc3ccccc3)cc2)nc1C#N | 82.8
O=C(Nc1ccc(Oc2ccccc2)cc1)c1cnc2n(c1=O)CCS2 | 63.5
COc1cccc(-c2cc(C(=O)Nc3ccccc3SC)no2)c1 | 87.1
CCC(C)c1ccc2oc(-c3ccc(NC(=O)Cn4cnc5c(=O)n(C)c(=O)n(C)c54)cc3)nc2c1 (stereo not given) | 114
c1ccc2c(c1)CCN(c1ncnc3c1[nH]c1ccccc13)C2 | 116
CC(=O)c1ccc(N2CCN(c3ccc(C(F)(F)F)cn3)CC2)cc1 | 58.5
Cc1occc1C(=O)N1CCN(c2ccc(Cl)c(Cl)c2)CC1 | 81.4
CCCC(=O)Nc1ccc(-c2nc3cc(C)ccc3o2)cc1 | 54.8
Cc1cccc(-c2nc(CSCC(=O)N3CCN(Cc4ccc5c(c4)OCO5)CC3)c(C)o2)c1 | 62.4
Nc1nonc1C(=O)NCCNCc1cc(Br)ccc1OCc1ccc(F)cc1 | 109
CCOC(=O)N1CCC(NC(=O)C2CCCN(Cc3nc(-c4cccc(Cl)c4)oc3C)C2)CC1 (stereo not given) | 69
c1ccc2c(c1)oc1c(NCc3ccc4c(c3)OCO4)ncnc12 | 79.2
O=C(Nc1ccc(O)cc1)c1cc2n(n1)C(C(F)(F)F)CC(c1ccco1)N2 (stereo not given) | 82.7
c1ccc(N2CCN(Cc3ccnc4ccccc34)CC2)cc1 | 96.3
CC(C)COC(=O)NCCOC(=O)Nc1cccc(Cl)c1 | 76.6
c1ccc(CSc2nnc(-c3c[nH]c4ccccc34)o2)cc1 | 99.4
CCn1c(SCC(=O)Nc2nc3ccc(C)cc3s2)nc2c(c1=O)SC(C)C2 (stereo not given) | 68.7

A section of the results above:
Compound | activation [%]
COc1cccc(-c2cc(C(=O)Nc3ccccc3SC)no2)c1 | 87.1
CCC(C)c1ccc2oc(-c3ccc(NC(=O)Cn4cnc5c(=O)n(C)c(=O)n(C)c54)cc3)nc2c1 (stereo not given) | 114

Source: PubChem BioAssay AID449 (The Scripps Research Institute Molecular Screening Center, 2006)
